The record followed here is the supplement of paper PMC6331611.

The structures appear in SMILES notation. ± gives the standard deviation of the averaged measurements. In all, about 1,600 compounds were measured (“normalized intracellular growth (luminescence, IQM-normalized) in RAW264.7 macrophages”: median about 1, lowest 2% from about 0.43 on). Some of the results follow.

The test system of this assay is Salmonella enterica serovar Typhimurium SL1344. Briefly: normalized intracellular growth (luminescence, IQM-normalized) in RAW264.7 macrophages (fraction of plate interquartile mean); higher = more bacterial growth (less inhibition). The settings on record: 10 µM.

For `CN(C)CCCN1c2ccccc2CCc2ccccc21`, the normalized intracellular growth came out at 1.02 ± 0.036 (time point: T3 (3 h)) and 1.08 ± 0.019 (time point: Tfinal (~6 h)).

Consider `C[C@H]1COc2c(N3CCN(C)CC3)c(F)cc3c(=O)c(C(=O)O)cn1c23`, for which the normalized intracellular growth runs as follows: (time point: T3 (3 h)) 1.245 ± 0.0094; (time point: Tfinal (~6 h)) 0.00765 ± 0.001.

Turning to `C[N+](C)(C)CCO.[Cl-]`, the normalized intracellular growth is, setting by setting: (time point: T3 (3 h)) 1.1 ± 0.057; (time point: Tfinal (~6 h)) 0.985 ± 0.068.

In the case of `CN1CCC(OC(c2ccccc2)c2ccccc2)CC1`, the normalized intracellular growth (time point: T3 (3 h)) was 1 ± 0.042 and the normalized intracellular growth (time point: Tfinal (~6 h)) came out at 1.26 ± 0.073.

On to `O=C(Oc1cccc2cccnc12)c1ccccc1`, for which the normalized intracellular growth turned out to be 1.06 ± 0.062 (time point: T3 (3 h)) and 0.905 ± 0.078 (time point: Tfinal (~6 h)).

With `CC(=O)SCC(Cc1ccccc1)C(=O)NCC(=O)OCc1ccccc1` (stereo not given), the normalized intracellular growth by setting is: (time point: T3 (3 h)) 1.01 ± 0.039; (time point: Tfinal (~6 h)) 0.954 ± 0.089.

`COC(=O)C1=C(C)NC(C)=C(C(=O)OC(C)C)C1c1cccc2nonc12` (stereo not given): the normalized intracellular growth is, setting by setting: (time point: T3 (3 h)) 1.07 ± 0.06; (time point: Tfinal (~6 h)) 1.17 ± 0.028.

With `CN1CCN(c2cc3c(cc2F)c(=O)c(C(=O)O)cn3-c2ccc(F)cc2)CC1`, the normalized intracellular growth reads like this: (time point: T3 (3 h)) 0.634 ± 0.14; (time point: Tfinal (~6 h)) 0.982 ± 0.093.

Compound `O=C(O)CCCC[C@@H]1SC[C@@H]2NC(=O)N[C@@H]21` had a normalized intracellular growth (time point: T3 (3 h)) of 1 ± 0.033 and a normalized intracellular growth (time point: Tfinal (~6 h)) of 0.954 ± 0.12.

Consider `CC1COc2c(N3CCN(C)CC3)c(F)cc3c(=O)c(C(=O)O)cn1c23` (stereo not given), for which the normalized intracellular growth by setting is: (time point: T3 (3 h)) 0.856 ± 0.034; (time point: Tfinal (~6 h)) 0.134 ± 0.0023.

`CC(C)C(=O)Nc1ccc([N+](=O)[O-])c(C(F)(F)F)c1`: the normalized intracellular growth was 1.09 ± 0.013 (time point: T3 (3 h)) and 1.04 ± 0.029 (time point: Tfinal (~6 h)).

As for `CC(=O)Oc1cc2c(s1)CCN(C(C(=O)C1CC1)c1ccccc1F)C2` (stereo not given), the normalized intracellular growth amounted to 1.1 ± 0.063 (time point: T3 (3 h)) and 1.04 ± 0.15 (time point: Tfinal (~6 h)).

For the compound `Cn1cnc([N+](=O)[O-])c1Sc1ncnc2[nH]cnc12`, the normalized intracellular growth reads like this: (time point: T3 (3 h)) 1.04 ± 0.028; (time point: Tfinal (~6 h)) 0.852 ± 0.032.

Regarding `CC(=O)OCC[N+](C)(C)C`, the normalized intracellular growth by setting is: (time point: T3 (3 h)) 0.952 ± 0.033; (time point: Tfinal (~6 h)) 1.11 ± 0.11.

On to `OCCN1C[C@H](O)[C@@H](O)[C@H](O)[C@H]1CO`, for which the normalized intracellular growth reads like this: (time point: T3 (3 h)) 1.07 ± 0.054; (time point: Tfinal (~6 h)) 1.1 ± 0.24.

With `CC1=C(C/C=C(\C)CCC[C@H](C)CCC[C@H](C)CCCC(C)C)C(=O)c2ccccc2C1=O`, the normalized intracellular growth reads like this: (time point: T3 (3 h)) 0.968 ± 0.067; (time point: Tfinal (~6 h)) 1.08 ± 0.064.

For the compound `Cc1ncc(COP(=O)([O-])[O-])c(CN(CCN(CC(=O)O)Cc2c(COP(=O)([O-])O)cnc(C)c2O)CC(=O)O)c1O.[Mn].[Na+].[Na+].[Na+]`, the normalized intracellular growth is, setting by setting: (time point: T3 (3 h)) 0.972 ± 0.075; (time point: Tfinal (~6 h)) 1.17 ± 0.028.

`CC(=O)Nc1cccc(O)c1`: the normalized intracellular growth was found to be 1 ± 0.051 (time point: T3 (3 h)) and 0.73 ± 0.069 (time point: Tfinal (~6 h)).

For `Cc1cnc(C(=O)O)c[n+]1[O-]`, the normalized intracellular growth stood at 1.04 ± 0.04 (time point: T3 (3 h)) and 0.725 ± 0.081 (time point: Tfinal (~6 h)).

In the case of `O=C(O)C1(C(=O)O)CCC1.[NH2-].[NH2-].[Pt+2]`, the normalized intracellular growth by setting is: (time point: T3 (3 h)) 1.01 ± 0.067; (time point: Tfinal (~6 h)) 1.19 ± 0.071.

`OCc1ccccn1` yielded a normalized intracellular growth (time point: T3 (3 h)) of 1.02 ± 0.06 and a normalized intracellular growth (time point: Tfinal (~6 h)) of 0.892 ± 0.1.

Regarding `COc1ccc(CN2CCN(C(c3ccc(F)cc3)c3ccc(F)cc3)CC2)c(OC)c1OC`, the normalized intracellular growth by setting is: (time point: T3 (3 h)) 1.08 ± 0.13; (time point: Tfinal (~6 h)) 0.896 ± 0.23.

With `CC(C)Cc1ccc(C(C)C(=O)O)cc1` (stereo not given), the normalized intracellular growth amounted to 0.9911 ± 0.0085 (time point: T3 (3 h)) and 1.18 ± 0.062 (time point: Tfinal (~6 h)).

`CC(C)(C)NC[C@H](O)COc1ccccc1C1CCCC1`: the normalized intracellular growth by setting is: (time point: T3 (3 h)) 0.99 ± 0.017; (time point: Tfinal (~6 h)) 1.22 ± 0.12.

For `COc1ccc(C(=O)c2ccccc2O)c(O)c1`, the normalized intracellular growth runs as follows: (time point: T3 (3 h)) 1 ± 0.047; (time point: Tfinal (~6 h)) 1.24 ± 0.031.

In the case of `COCCc1ccc(OCC(O)CNC(C)C)cc1` (stereo not given), the normalized intracellular growth reads like this: (time point: T3 (3 h)) 0.997 ± 0.035; (time point: Tfinal (~6 h)) 1.24 ± 0.1.

On to `Nc1nc2[nH]cc(CCc3ccc(C(=O)N[C@@H](CCC(=O)O)C(=O)O)cc3)c2c(=O)[nH]1`, for which the normalized intracellular growth came to 0.975 ± 0.018 (time point: T3 (3 h)) and 1.12 ± 0.16 (time point: Tfinal (~6 h)).

In the case of `CN1CCC[C@@H]1CCO[C@](C)(c1ccccc1)c1ccc(Cl)cc1`, the normalized intracellular growth stood at 0.904 ± 0.032 (time point: T3 (3 h)) and 0.915 ± 0.11 (time point: Tfinal (~6 h)).

For the compound `CCOc1ccc(NC(C)=O)cc1`, the normalized intracellular growth by setting is: (time point: T3 (3 h)) 0.937 ± 0.053; (time point: Tfinal (~6 h)) 0.965 ± 0.052.

On to `COc1cc2ncnc(Nc3ccc(F)c(Cl)c3)c2cc1OCCCN1CCOCC1`, for which the normalized intracellular growth (time point: T3 (3 h)) was 0.955 ± 0.027 and the normalized intracellular growth (time point: Tfinal (~6 h)) is 1.03 ± 0.037.

`CC(=O)Nc1ccc(C(=O)O)cc1` displayed a normalized intracellular growth (time point: T3 (3 h)) of 1.06 ± 0.055 and a normalized intracellular growth (time point: Tfinal (~6 h)) of 0.967 ± 0.1.

For `O=C(O)c1ccccc1`, the normalized intracellular growth runs as follows: (time point: T3 (3 h)) 0.979 ± 0.028; (time point: Tfinal (~6 h)) 1.01 ± 0.07.

Regarding `CN[C@@H]1[C@H](O[C@H]2[C@H](O[C@H]3[C@H](O)[C@@H](O)[C@H](NC(=N)N)[C@@H](O)[C@@H]3NC(=N)N)O[C@@H](C)[C@]2(O)CO)O[C@@H](CO)[C@H](O)[C@H]1O`, the normalized intracellular growth reads like this: (time point: T3 (3 h)) 1.02 ± 0.035; (time point: Tfinal (~6 h)) 1.05 ± 0.075.

For `NCc1ccc(S(N)(=O)=O)cc1`, the normalized intracellular growth is, setting by setting: (time point: T3 (3 h)) 0.686 ± 0.071; (time point: Tfinal (~6 h)) 0.0766 ± 0.0043.

For the compound `CCc1oc2ccccc2c1C(=O)c1cc(Br)c(O)c(Br)c1`, the normalized intracellular growth by setting is: (time point: T3 (3 h)) 1.04 ± 0.022; (time point: Tfinal (~6 h)) 0.988 ± 0.18.

On to `CC/C(=C(\c1ccccc1)c1ccc(OCCN(C)C)cc1)c1ccccc1`, for which the normalized intracellular growth reads like this: (time point: T3 (3 h)) 1.01 ± 0.072; (time point: Tfinal (~6 h)) 1 ± 0.067.

The compound `C#C[C@]1(O)CC[C@H]2[C@@H]3CCC4=C(CCC(=O)C4)[C@H]3CC[C@@]21C` showed a normalized intracellular growth (time point: T3 (3 h)) of 1.1 ± 0.073 and a normalized intracellular growth (time point: Tfinal (~6 h)) of 1.15 ± 0.16.

`CC[N+](CC)(CC)CCOc1cccc(OCC[N+](CC)(CC)CC)c1OCC[N+](CC)(CC)CC`: the normalized intracellular growth came to 0.927 ± 0.045 (time point: T3 (3 h)) and 0.903 ± 0.067 (time point: Tfinal (~6 h)).

Consider `CCOC(=O)[N-]c1c[n+](N2CCOCC2)no1`, for which the normalized intracellular growth is 0.956 ± 0.035 (time point: T3 (3 h)) and 0.736 ± 0.26 (time point: Tfinal (~6 h)).

With `CC(C)(C)NCC(O)c1cc(O)cc(O)c1` (stereo not given), the normalized intracellular growth by setting is: (time point: T3 (3 h)) 1.08 ± 0.05; (time point: Tfinal (~6 h)) 0.912 ± 0.049.

Take `Cc1ccccc1C(OCCN(C)C)c1ccccc1` (stereo not given): the normalized intracellular growth runs as follows: (time point: T3 (3 h)) 0.839 ± 0.072; (time point: Tfinal (~6 h)) 1.48 ± 0.11.

For `O=C1C(O)=C([C@H]2CC[C@H](c3ccc(Cl)cc3)CC2)C(=O)c2ccccc21`, the normalized intracellular growth was found to be 1.07 ± 0.075 (time point: T3 (3 h)) and 1.12 ± 0.22 (time point: Tfinal (~6 h)).

On to `NC(=O)NC1NC(=O)NC1=O` (stereo not given), for which the normalized intracellular growth by setting is: (time point: T3 (3 h)) 1.02 ± 0.025; (time point: Tfinal (~6 h)) 1.01 ± 0.1.

As for `O=C1CCc2ccc(OCCCCN3CCN(c4cccc(Cl)c4Cl)CC3)cc2N1`, the normalized intracellular growth came out at 0.99 ± 0.091 (time point: T3 (3 h)) and 1.07 ± 0.25 (time point: Tfinal (~6 h)).

With `CN(C)CCOC(c1ccc(Cl)cc1)c1ccccn1` (stereo not given), the normalized intracellular growth runs as follows: (time point: T3 (3 h)) 1.07 ± 0.036; (time point: Tfinal (~6 h)) 0.974 ± 0.078.
